Assay results taken from patent US10159726B2, “Peptides, combination of peptides and scaffolds for use in immunotherapeutic treatment of various cancers” (Immatics Biotechnologies GmbH, priority 2015, dated 2018).
For part of these data: Expression grades refer to the transcript from which the peptide derives; gene names, where given, were looked up from the sequence.

Legend:
Parameters in all cases: species or system human
[1] = tested on: source genes of selected peptides; test: Target coverage of source genes in tumor entities based on TCGA Research Network data; settings: over-expressed = more than 2-fold above the highest 75% percentile of normal organs; for Target coverage, over-expression category of source gene, BLCA (N = 408): Bladder urothelial carcinoma; for Target coverage, over-expression category of source gene, CESC (N = 307): Cervical squamous cell carcinoma and endocervical adenocarcinoma; for Target coverage, over-expression category of source gene, HNSC (N = 521): Head and neck squamous cell carcinoma; for Target coverage, over-expression category of source gene, DLBC (N = 48): Lymphoid neoplasm diffuse large B-cell lymphoma
[2] = tested on: HLA-A*24 molecules of primary tumors; test: Identification and relative LC-MS quantitation of HLA-A*24 tumor-associated peptides presented on tissue samples (XPRESIDENT presentation profiles); settings: Table 9A: selected HLA-A*24-binding tumor-associated peptides; cancer entities on which the peptide was found presented
[3] = tested on: source genes of selected peptides; test: Expression profiling of source genes by in-house RNAseq, tumor vs normal tissues (target coverage); settings: for Target coverage, over-expression of source gene, AML: AML (N = 7), over-expression = more than 1.5-fold higher expression on tumor vs highest-expressing relevant normal tissue; for Target coverage, over-expression of source gene, AML / Target coverage, over-expression of source gene, BRCA / Target coverage, over-expression of source gene, CLL / Target coverage, over-expression of source gene, CRC / Target coverage, over-expression of source gene, GB / Target coverage, over-expression of source gene, HCC / Target coverage, over-expression of source gene, OC / Target coverage, over-expression of source gene, OSCAR / Target coverage, over-expression of source gene, PC / Target coverage, over-expression of source gene, RCC / Target coverage, over-expression of source gene, SCLC / Target coverage, over-expression of source gene, pNSCLC: in-house RNASeq; for Target coverage, over-expression of source gene, BRCA: BRCA (N = 10); for Target coverage, over-expression of source gene, BRCA / Target coverage, over-expression of source gene, CLL / Target coverage, over-expression of source gene, CRC / Target coverage, over-expression of source gene, GB / Target coverage, over-expression of source gene, HCC / Target coverage, over-expression of source gene, OC / Target coverage, over-expression of source gene, OSCAR / Target coverage, over-expression of source gene, PC / Target coverage, over-expression of source gene, RCC / Target coverage, over-expression of source gene, SCLC / Target coverage, over-expression of source gene, pNSCLC: over-expression = more than 1.5-fold vs highest normal tissue; for Target coverage, over-expression of source gene, CLL: CLL (N = 10); for Target coverage, over-expression of source gene, CRC: CRC (N = 20); for Target coverage, over-expression of source gene, GB: GB (N = 24); for Target coverage, over-expression of source gene, HCC: HCC (N = 15); for Target coverage, over-expression of source gene, OC: OC (N = 12); for Target coverage, over-expression of source gene, OSCAR: OSCAR (N = 11); for Target coverage, over-expression of source gene, PC: PC (N = 26); for Target coverage, over-expression of source gene, RCC: RCC (N = 10); for Target coverage, over-expression of source gene, SCLC: SCLC (N = 10); for Target coverage for source genes of selected peptides, GBC_CCC (N = 10): gallbladder adenocarcinoma and cholangiocarcinoma; for Target coverage for source genes of selected peptides, GBC_CCC (N = 10) / Target coverage for source genes of selected peptides, GC (N = 11) / Target coverage for source genes of selected peptides, HNSCC (N = 10) / Target coverage for source genes of selected peptides, MEL (N = 10) / Target coverage for source genes of selected peptides, NHL (N = 10) / Target coverage for source genes of selected peptides, PCA (n = 10) / Target coverage for source genes of selected peptides, UBC (N = 10) / Target coverage for source genes of selected peptides, UTC (N = 10): share of tumors with more than 1.5-fold higher expression than the highest-expressing relevant normal tissue, in-house RNAseq; for Target coverage for source genes of selected peptides, GC (N = 11): gastric cancer; for Target coverage for source genes of selected peptides, HNSCC (N = 10): head and neck small cell carcinoma; for Target coverage for source genes of selected peptides, MEL (N = 10): melanoma; for Target coverage for source genes of selected peptides, NHL (N = 10): non-Hodgkin lymphoma; for Target coverage, over-expression of source gene, pNSCLC: pNSCLC (N = 11); for Target coverage for source genes of selected peptides, PCA (n = 10): prostate cancer and benign prostate hyperplasia; for Target coverage for source genes of selected peptides, UBC (N = 10): urinary bladder cancer; for Target coverage for source genes of selected peptides, UTC (N = 10): uterine cancer

Row | Substance | Target coverage, over-expression category of source gene, BLCA (N = 408) [1] | Target coverage, over-expression category of source gene, CESC (N = 307) [1] | Target coverage, over-expression category of source gene, HNSC (N = 521) [1] | ENTITIES [2] | Target coverage, over-expression of source gene, AML [3] | Target coverage, over-expression of source gene, BRCA [3] | Target coverage, over-expression of source gene, CLL [3] | Target coverage, over-expression of source gene, CRC [3] | Target coverage, over-expression of source gene, GB [3] | Target coverage, over-expression of source gene, HCC [3] | Target coverage, over-expression of source gene, OC [3] | Target coverage for source genes of selected peptides, GBC_CCC (N = 10) [3] | Target coverage for source genes of selected peptides, GC (N = 11) [3] | Target coverage for source genes of selected peptides, HNSCC (N = 10) [3] | Target coverage for source genes of selected peptides, MEL (N = 10) [3] | Target coverage for source genes of selected peptides, NHL (N = 10) [3] | Target coverage for source genes of selected peptides, PCA (n = 10) [3] | Target coverage for source genes of selected peptides, UBC (N = 10) [3] | Target coverage for source genes of selected peptides, UTC (N = 10) [3] | Target coverage, over-expression category of source gene, DLBC (N = 48) [1] | further results
1 | 123: peptide found in PRKDC (gene looked up) (VYTPVLEHL; listed as Homo sapiens) [compound 123] | C (>=5% of tumors above the cutoff, but <20%) | C (>=5% of tumors above the cutoff, but <20%) | B (>=20% of tumors above the cutoff, but <50%) | NSCLC, GC, GB, HCC | I (<19% over-expression = I) | III (50-69% = III) | I (<19% over-expression = I) | II (20-49% = II) | III (50-69% = III) | I (<19% over-expression = I) | III (50-69% = III) | I (<19% over-expression = I) | I (<19% over-expression = I) | I (<19% over-expression = I) | II (20-49% = II) | II (20-49% = II) | I (<19% over-expression = I) | I (<19% over-expression = I) | I (<19% over-expression = I) |  | Target coverage, over-expression of source gene, OSCAR [3]: II (20-49% = II); Target coverage, over-expression of source gene, PC [3]: I (<19% over-expression = I); Target coverage, over-expression of source gene, RCC [3]: I (<19% over-expression = I); Target coverage, over-expression of source gene, SCLC [3]: IV (>70% = IV); Target coverage, over-expression of source gene, pNSCLC [3]: III (50-69% = III)
2 | 124: peptide found in PRKDC (gene looked up) (TYKDYVDLF; listed as Homo sapiens) [compound 124] | C (>=5% of tumors above the cutoff, but <20%) | C (>=5% of tumors above the cutoff, but <20%) | B (>=20% of tumors above the cutoff, but <50%) | GC, RCC, GB, PCA, HCC, NSCLC | I (<19% over-expression = I) | III (50-69% = III) | I (<19% over-expression = I) | II (20-49% = II) | III (50-69% = III) | I (<19% over-expression = I) | III (50-69% = III) | I (<19% over-expression = I) | I (<19% over-expression = I) | I (<19% over-expression = I) | II (20-49% = II) | II (20-49% = II) | I (<19% over-expression = I) | I (<19% over-expression = I) | I (<19% over-expression = I) |  | Target coverage, over-expression of source gene, OSCAR [3]: II (20-49% = II); Target coverage, over-expression of source gene, PC [3]: I (<19% over-expression = I); Target coverage, over-expression of source gene, RCC [3]: I (<19% over-expression = I); Target coverage, over-expression of source gene, SCLC [3]: IV (>70% = IV); Target coverage, over-expression of source gene, pNSCLC [3]: III (50-69% = III)
3 | 125: peptide found in PRKDC (gene looked up) (VFSRDFGLLVF; listed as Homo sapiens) [compound 125] | C (>=5% of tumors above the cutoff, but <20%) | C (>=5% of tumors above the cutoff, but <20%) | B (>=20% of tumors above the cutoff, but <50%) | GC, HCC, NSCLC | I (<19% over-expression = I) | III (50-69% = III) | I (<19% over-expression = I) | II (20-49% = II) | III (50-69% = III) | I (<19% over-expression = I) | III (50-69% = III) |  |  |  |  |  |  |  |  |  | Target coverage, over-expression of source gene, OSCAR [3]: II (20-49% = II); Target coverage, over-expression of source gene, PC [3]: I (<19% over-expression = I); Target coverage, over-expression of source gene, RCC [3]: I (<19% over-expression = I); Target coverage, over-expression of source gene, SCLC [3]: IV (>70% = IV); Target coverage, over-expression of source gene, pNSCLC [3]: III (50-69% = III)
4 | 128: peptide found in PLA2G7 (gene looked up) (VYPFDWQYI; listed as Homo sapiens) [compound 128] |  |  |  | GB, PCA, HCC, NSCLC, GC |  |  |  |  |  |  |  | I (<19% over-expression = I) | I (<19% over-expression = I) | I (<19% over-expression = I) | I (<19% over-expression = I) | I (<19% over-expression = I) | I (<19% over-expression = I) | I (<19% over-expression = I) | I (<19% over-expression = I) | C (>=5% of tumors above the cutoff, but <20%) | 
5 | 144: peptide found in CCR4 (gene looked up) (VFASLPGFLF; listed as Homo sapiens) [compound 144] |  |  |  | NSCLC, GC |  |  |  |  |  |  |  | I (<19% over-expression = I) | I (<19% over-expression = I) | I (<19% over-expression = I) | I (<19% over-expression = I) | III (50-69% = III) | I (<19% over-expression = I) | I (<19% over-expression = I) | I (<19% over-expression = I) | C (>=5% of tumors above the cutoff, but <20%) | 
6 | 145: peptide found in CCR8 (gene looked up) (VYALKVRTI; listed as Homo sapiens) [compound 145] |  |  | C (>=5% of tumors above the cutoff, but <20%) | NSCLC |  |  |  |  |  |  |  | II (20-49% = II) | I (<19% over-expression = I) | II (20-49% = II) | II (20-49% = II) | II (20-49% = II) | I (<19% over-expression = I) | II (20-49% = II) | I (<19% over-expression = I) | C (>=5% of tumors above the cutoff, but <20%) | 
7 | 161: peptide found in ICOS (gene looked up) (KYPDIVQQF; listed as Homo sapiens) [compound 161] |  |  |  | PCA, HCC, NSCLC, GC |  |  |  |  |  |  |  | I (<19% over-expression = I) | I (<19% over-expression = I) | I (<19% over-expression = I) | I (<19% over-expression = I) | II (20-49% = II) | I (<19% over-expression = I) | I (<19% over-expression = I) | I (<19% over-expression = I) | C (>=5% of tumors above the cutoff, but <20%) | 
